Publication PMC3958483, “Fine Specificity and Molecular Competition in SLAM Family Receptor Signalling” (PLoS ONE, 2014)
Results are given in words; binding and its absence hold for the method and conditions named. In cells and extracts the contact can be indirect. These calls come from enrichment with a bait or labelling near it, and not all partners need be listed. For some assays here: No binding means not detected with the bait. For some assays here: Where a sequence is shown, tags or fusion partners need not be part of it.

T1: CD244 ITSM1 phosphopeptide (Biotin-EFLTIpYEDVKD) (human)
T1 sequence (peptide, phosphotyrosine (pY, position 6 of the peptide); biotin on the N-terminus): EFLTIYEDVKD

T2: Biotinylated EAT-2 (full length human EAT-2 with a C-terminal BirA tag) (human) (UniProt O14796)
T2 sequence (chain, biotin (on the BirA tag)): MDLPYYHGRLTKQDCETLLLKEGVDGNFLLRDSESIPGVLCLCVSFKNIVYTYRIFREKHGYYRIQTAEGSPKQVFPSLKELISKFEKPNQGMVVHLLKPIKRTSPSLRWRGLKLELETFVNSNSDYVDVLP

T3: EAT-2 Y127 phosphopeptide (Biotin-NSNSDpYVDVLP) (human)
T3 sequence (peptide, phosphotyrosine at Y127 (position 6 of the peptide); biotin on the N-terminus): NSNSDYVDVLP

B1: EAT-2 (endogenous, NK92 cells) (protein, UniProt O14796 1-132)
chain: T2 sequence (chain, biotin (on the BirA tag))
B2: SHIP-1 (endogenous, NK92 cells) (enzyme, UniProt Q92835 1-1189)
chain: MVPCWNHGNITRSKAEELLSRTGKDGSFLVRASESISRAYALCVLYRNCVYTYRILPNEDDKFTVQASEGVSMRFFTKLDQLIEFYKKENMGLVTHLQYPVPLEEEDTGDDPEEDTVESVVSPPELPPRNIPLTASSCEAKEVPFSNENPRATETSRPSLSETLFQRLQSMDTSGLPEEHLKAIQDYLSTQLAQDSEFVKTGSSSLPHLKKLTTLLCKELYGEVIRTLPSLESLQRLFDQQLSPGLRPRPQVPGEANPINMVSKLSQLTSLLSSIEDKVKALLHEGPESPHRPSLIPPVTFEVKAESLGIPQKMQLKVDVESGKLIIKKSKDGSEDKFYSHKKILQLIKSQKFLNKLVILVETEKEKILRKEYVFADSKKREGFCQLLQQMKNKHSEQPEPDMITIFIGTWNMGNAPPPKKITSWFLSKGQGKTRDDSADYIPHDIYVIGTQEDPLSEKEWLEILKHSLQEITSVTFKTVAIHTLWNIRIVVLAKPEHENRISHICTDNVKTGIANTLGNKGAVGVSFMFNGTSLGFVNSHLTSGSEKKLRRNQNYMNILRFLALGDKKLSPFNITHRFTHLFWFGDLNYRVDLPTWEAETIIQKIKQQQYADLLSHDQLLTERREQKVFLHFEEEEITFAPTYRFERLTRDKYAYTKQKATGMKYNLPSWCDRVLWKSYPLVHVVCQSYGSTSDIMTSDHSPVFATFEAGVTSQFVSKNGPGTVDSQGQIEFLRCYATLKTKSQTKFYLEFHSSCLESFVKSQEGENEEGSEGELVVKFGETLPKLKPIISDPEYLLDQHILISIKSSDSDESYGEGCIALRLEATETQLPIYTPLTHHGELTGHFQGEIKLQTSQGKTREKLYDFVKTERDESSGPKTLKSLTSHDPMKQWEVTSRAPPCSGSSITEIINPNYMGVGPFGPPMPLHVKQTLSPDQQPTAWSYDQPPKDSPLGPCRGESPPTPPGQPPISPKKFLPSTANRGLPPRTQESRPSDLGKNAGDTLPQEDLPLTKPEMFENPLYGSLSSFPKPAPRKDQESPKMPRKEPPPCPEPGILSPSIVLTKAQEADRGEGPGKQVPAPRLRSFTCSSSAEGRAAGGDKSQGKPKTPVSSQAPVPAKRPIKPSRSEINQQTPPTPTPRPPLPVKSPAVLHLQHSKGRDYRDNTELPHHGKHRPEEGPPGPLGRTAMQ
B3: SHIP-2 (endogenous, NK92 cells) (enzyme, UniProt O15357 1-1258)
chain: MASACGAPGPGGALGSQAPSWYHRDLSRAAAEELLARAGRDGSFLVRDSESVAGAFALCVLYQKHVHTYRILPDGEDFLAVQTSQGVPVRRFQTLGELIGLYAQPNQGLVCALLLPVEGEREPDPPDDRDASDGEDEKPPLPPRSGSTSISAPTGPSSPLPAPETPTAPAAESAPNGLSTVSHDYLKGSYGLDLEAVRGGASHLPHLTRTLATSCRRLHSEVDKVLSGLEILSKVFDQQSSPMVTRLLQQQNLPQTGEQELESLVLKLSVLKDFLSGIQKKALKALQDMSSTAPPAPQPSTRKAKTIPVQAFEVKLDVTLGDLTKIGKSQKFTLSVDVEGGRLVLLRRQRDSQEDWTTFTHDRIRQLIKSQRVQNKLGVVFEKEKDRTQRKDFIFVSARKREAFCQLLQLMKNKHSKQDEPDMISVFIGTWNMGSVPPPKNVTSWFTSKGLGKTLDEVTVTIPHDIYVFGTQENSVGDREWLDLLRGGLKELTDLDYRPIAMQSLWNIKVAVLVKPEHENRISHVSTSSVKTGIANTLGNKGAVGVSFMFNGTSFGFVNCHLTSGNEKTARRNQNYLDILRLLSLGDRQLNAFDISLRFTHLFWFGDLNYRLDMDIQEILNYISRKEFEPLLRVDQLNLEREKHKVFLRFSEEEISFPPTYRYERGSRDTYAWHKQKPTGVRTNVPSWCDRILWKSYPETHIICNSYGCTDDIVTSDHSPVFGTFEVGVTSQFISKKGLSKTSDQAYIEFESIEAIVKTASRTKFFIEFYSTCLEEYKKSFENDAQSSDNINFLKVQWSSRQLPTLKPILADIEYLQDQHLLLTVKSMDGYESYGECVVALKSMIGSTAQQFLTFLSHRGEETGNIRGSMKVRVPTERLGTRERLYEWISIDKDEAGAKSKAPSVSRGSQEPRSGSRKPAFTEASCPLSRLFEEPEKPPPTGRPPAPPRAAPREEPLTPRLKPEGAPEPEGVAAPPPKNSFNNPAYYVLEGVPHQLLPPEPPSPARAPVPSATKNKVAITVPAPQLGHHRHPRVGEGSSSDEESGGTLPPPDFPPPPLPDSAIFLPPSLDPLPGPVVRGRGGAEARGPPPPKAHPRPPLPPGPSPASTFLGEVASGDDRSCSVLQMAKTLSEVDYAPAGPARSALLPGPLELQPPRGLPSDYGRPLSFPPPRIRESIQEDLAEEAPCLQGGRASGLGEAGMSAWLRAIGLERYEEGLVHNGWDDLEFLSDITEEDLEEAGVQDPAHKRLLLDTLQLSK
B4: Phospholipase C gamma-1 (PLCγ1) (endogenous, NK92 cells) (enzyme, UniProt P19174 1-1290)
chain: MAGAASPCANGCGPGAPSDAEVLHLCRSLEVGTVMTLFYSKKSQRPERKTFQVKLETRQITWSRGADKIEGAIDIREIKEIRPGKTSRDFDRYQEDPAFRPDQSHCFVILYGMEFRLKTLSLQATSEDEVNMWIKGLTWLMEDTLQAPTPLQIERWLRKQFYSVDRNREDRISAKDLKNMLSQVNYRVPNMRFLRERLTDLEQRSGDITYGQFAQLYRSLMYSAQKTMDLPFLEASTLRAGERPELCRVSLPEFQQFLLDYQGELWAVDRLQVQEFMLSFLRDPLREIEEPYFFLDEFVTFLFSKENSVWNSQLDAVCPDTMNNPLSHYWISSSHNTYLTGDQFSSESSLEAYARCLRMGCRCIELDCWDGPDGMPVIYHGHTLTTKIKFSDVLHTIKEHAFVASEYPVILSIEDHCSIAQQRNMAQYFKKVLGDTLLTKPVEISADGLPSPNQLKRKILIKHKKLAEGSAYEEVPTSMMYSENDISNSIKNGILYLEDPVNHEWYPHYFVLTSSKIYYSEETSSDQGNEDEEEPKEVSSSTELHSNEKWFHGKLGAGRDGRHIAERLLTEYCIETGAPDGSFLVRESETFVGDYTLSFWRNGKVQHCRIHSRQDAGTPKFFLTDNLVFDSLYDLITHYQQVPLRCNEFEMRLSEPVPQTNAHESKEWYHASLTRAQAEHMLMRVPRDGAFLVRKRNEPNSYAISFRAEGKIKHCRVQQEGQTVMLGNSEFDSLVDLISYYEKHPLYRKMKLRYPINEEALEKIGTAEPDYGALYEGRNPGFYVEANPMPTFKCAVKALFDYKAQREDELTFIKSAIIQNVEKQEGGWWRGDYGGKKQLWFPSNYVEEMVNPVALEPEREHLDENSPLGDLLRGVLDVPACQIAIRPEGKNNRLFVFSISMASVAHWSLDVAADSQEELQDWVKKIREVAQTADARLTEGKIMERRKKIALELSELVVYCRPVPFDEEKIGTERACYRDMSSFPETKAEKYVNKAKGKKFLQYNRLQLSRIYPKGQRLDSSNYDPLPMWICGSQLVALNFQTPDKPMQMNQALFMTGRHCGYVLQPSTMRDEAFDPFDKSSLRGLEPCAISIEVLGARHLPKNGRGIVCPFVEIEVAGAEYDSTKQKTEFVVDNGLNPVWPAKPFHFQISNPEFAFLRFVVYEEDMFSDQNFLAQATFPVKGLKTGYRAVPLKNNYSEDLELASLLIKIDIFPAKENGDLSPFSGTSLRERGSDASGQLFHGRAREGSFESRYQQPFEDFRISQEHLADHFDSRERRAPRRTRVNGDNRL
B5: Phospholipase C gamma-2 (PLCγ2) (endogenous, NK92 cells) (enzyme, UniProt P16885 1-1265)
chain: MSTTVNVDSLAEYEKSQIKRALELGTVMTVFSFRKSTPERRTVQVIMETRQVAWSKTADKIEGFLDIMEIKEIRPGKNSKDFERAKAVRQKEDCCFTILYGTQFVLSTLSLAADSKEDAVNWLSGLKILHQEAMNASTPTIIESWLRKQIYSVDQTRRNSISLRELKTILPLINFKVSSAKFLKDKFVEIGAHKDELSFEQFHLFYKKLMFEQQKSILDEFKKDSSVFILGNTDRPDASAVYLHDFQRFLIHEQQEHWAQDLNKVRERMTKFIDDTMRETAEPFLFVDEFLTYLFSRENSIWDEKYDAVDMQDMNNPLSHYWISSSHNTYLTGDQLRSESSPEAYIRCLRMGCRCIELDCWDGPDGKPVIYHGWTRTTKIKFDDVVQAIKDHAFVTSSFPVILSIEEHCSVEQQRHMAKAFKEVFGDLLLTKPTEASADQLPSPSQLREKIIIKHKKLGPRGDVDVNMEDKKDEHKQQGELYMWDSIDQKWTRHYCAIADAKLSFSDDIEQTMEEEVPQDIPPTELHFGEKWFHKKVEKRTSAEKLLQEYCMETGGKDGTFLVRESETFPNDYTLSFWRSGRVQHCRIRSTMEGGTLKYYLTDNLTFSSIYALIQHYRETHLRCAEFELRLTDPVPNPNPHESKPWYYDSLSRGEAEDMLMRIPRDGAFLIRKREGSDSYAITFRARGKVKHCRINRDGRHFVLGTSAYFESLVELVSYYEKHSLYRKMRLRYPVTPELLERYNMERDINSLYDVSRMYVDPSEINPSMPQRTVKALYDYKAKRSDELSFCRGALIHNVSKEPGGWWKGDYGTRIQQYFPSNYVEDISTADFEELEKQIIEDNPLGSLCRGILDLNTYNVVKAPQGKNQKSFVFILEPKQQGDPPVEFATDRVEELFEWFQSIREITWKIDTKENNMKYWEKNQSIAIELSDLVVYCKPTSKTKDNLENPDFREIRSFVETKADSIIRQKPVDLLKYNQKGLTRVYPKGQRVDSSNYDPFRLWLCGSQMVALNFQTADKYMQMNHALFSLNGRTGYVLQPESMRTEKYDPMPPESQRKILMTLTVKVLGARHLPKLGRSIACPFVEVEICGAEYDNNKFKTTVVNDNGLSPIWAPTQEKVTFEIYDPNLAFLRFVVYEEDMFSDPNFLAHATYPIKAVKSGFRSVPLKNGYSEDIELASLLVFCEMRPVLESEEELYSSCRQLRRRQEELNNQLFLYDTHQNLRNANRDALVKEFSVNENQLQLYQEKCNKRLREKRVSNSKFYS

How the values were obtained:
Test in all cases: affinity purification with mass spectrometry; streptavidin Sepharose coated with saturating biotinylated phosphopeptide or EAT-2; lysate of NK92 cells treated with 500 μM pervanadate (PBS, 1% Triton X-100, 1 mM orthovanadate); 2 hours at 4°C; eluted with glycine-HCl pH 2.5; LC-MS/MS; compared with a control bait (SHIP-1 Y865 phosphopeptide or EAT-2); only the target purified
[1] = target: T1, CD244 ITSM1 phosphopeptide (Biotin-EFLTIpYEDVKD) (human)
[2] = target: T2, Biotinylated EAT-2 (full length human EAT-2 with a C-terminal BirA tag) (human)
[3] = target: T3, EAT-2 Y127 phosphopeptide (Biotin-NSNSDpYVDVLP) (human)

Row | Binder | binding [1] | binding [2] | binding [3]
1 | B1 | binds |  | 
2 | B2 | binds |  | 
3 | B3 | binds |  | 
4 | B4 | binds | no binding | binds
5 | B5 |  | no binding | binds
